Assay results from publication PMC8867111.
Results are given in words; binding and its absence hold for the method and conditions named. Binding seen in cells or lysates may run through a third protein. A yes stands for co-enrichment or nearness to the bait. Other partners may have been found.

Target: Myc-ZBP1 expressed in THP-1 macrophages
Test: affinity purification with mass spectrometry; THP-1 macrophages transfected with vector control or Myc-ZBP1 for 48 h; lysate on anti-myc affinity columns, eluted with myc peptide; SDS-PAGE, silver stain, bands analysed by mass spectrometry

B1: TRIM34, endogenous in THP-1 macrophages (protein, UniProt Q9BYJ4 1-488)
chain: MASKILLNVQEEVTCPICLELLTEPLSLDCGHSLCRACITVSNKEAVTSMGGKSSCPVCGISYSFEHLQANQHLANIVERLKEVKLSPDNGKKRDLCDHHGEKLLLFCKEDRKVICWLCERSQEHRGHHTVLTEEVFKECQEKLQAVLKRLKKEEEEAEKLEADIREEKTSWKYQVQTERQRIQTEFDQLRSILNNEEQRELQRLEEEEKKTLDKFAEAEDELVQQKQLVRELISDVECRSQWSTMELLQDMSGIMKWSEIWRLKKPKMVSKKLKTVFHAPDLSRMLQMFRELTAVRCYWVDVTLNSVNLNLNLVLSEDQRQVISVPIWPFQCYNYGVLGSQYFSSGKHYWEVDVSKKTAWILGVYCRTYSRHMKYVVRRCANRQNLYTKYRPLFGYWVIGLQNKCKYGVFEESLSSDPEVLTLSMAVPPCRVGVFLDYEAGIVSFFNVTSHGSLIYKFSKCCFSQPVYPYFNPWNCPAPMTLCPPSS
binding: binds
